Data from PubChem BioAssay AID248 (DTP/NCI, 2004).
The list does not hold the whole screen: it is rich in T/C values a quarter to a half above the control, in often repeated tests (any T/C) and in doses without a T/C. Further doses and runs are listed elsewhere. T/C is the treated group as % of the vehicle group. Some entries give survivors of the animals treated and no T/C: the source holds a T/C of zero for them, seemingly a mark for toxic or unscored doses. Some doses without a T/C left all or most animals alive at the check, yet need not have been tolerated: the source hardly ever lists a survival T/C far under the control, and the zero likely stands for such cases as well. Survivors were counted at the toxicity check, usually on the fifth day, unless a day is given; later deaths do not show. Schedule codes are those of the source, read here as Q, the interval in days (D) or hours (H), X, the number of doses. Some entries hold several experiments; the values are given in rising order. Some schedule codes hold Z or #, which are not explained here. Some molecules as drawn cover several salts, stereoisomers or complexes of the source; a dose is that of the sample tested. Where survival is the endpoint, this PubChem deposit counts one and a half times the control or more as active, and values a quarter to a half above the control carry no call in these data; other NCI protocols may use other cut-offs.

Test system: L1210 leukemia ip in BDF1 mice, survival T/C
Assay: NCI In Vivo Anticancer Drug Screen. Data for tumor model L1210 Leukemia (intraperitoneal) in B6D2F1 (BDF1) mice
Settings: T/C endpoint: mean survival time, higher T/C = longer survival
[1] = dose: 400.0 mg/kg/injection, schedule: Q04DX003 (ip), vehicle: saline with Tween-80
[2] = dose: 50.0 mg/kg/injection, schedule: Q04DX002 (ip), vehicle: Klucel (hydroxypropylcellulose) (HPC)
[3] = dose: 100.0 mg/kg/injection, schedule: Q04DX002 (ip), vehicle: Klucel (hydroxypropylcellulose) (HPC)
[4] = dose: 200.0 mg/kg/injection, schedule: Q04DX002 (ip), vehicle: Klucel (hydroxypropylcellulose) (HPC)
[5] = dose: 400.0 mg/kg/injection, schedule: Q04DX002 (ip), vehicle: Klucel (hydroxypropylcellulose) (HPC)
[6] = dose: 400.0 mg/kg/injection, schedule: Q04DX002 (ip), vehicle: saline with Tween-80
[7] = dose: 200.0 mg/kg/injection, schedule: Q01DX009 (ip), vehicle: Klucel (hydroxypropylcellulose) (HPC)
[8] = dose: 200.0 mg/kg/injection, schedule: Q04DX003 (ip), vehicle: Klucel (hydroxypropylcellulose) (HPC)
[9] = dose: 400.0 mg/kg/injection, schedule: Q04DX003 (ip), vehicle: Klucel (hydroxypropylcellulose) (HPC)
[10] = dose: 50.0 mg/kg/injection, schedule: Q01DX009 (ip), vehicle: Klucel (hydroxypropylcellulose) (HPC)
[11] = dose: 100.0 mg/kg/injection, schedule: Q01DX001 (ip), vehicle: Klucel (hydroxypropylcellulose) (HPC)
[12] = dose: 200.0 mg/kg/injection, schedule: Q01DX001 (ip), vehicle: Klucel (hydroxypropylcellulose) (HPC)
[13] = dose: 50.0 mg/kg/injection, schedule: Q04DX003 (ip), vehicle: saline
[14] = dose: 400.0 mg/kg/injection, schedule: Q04DX003 (ip), vehicle: saline
[15] = dose: 400.0 mg/kg/injection, schedule: Q01DX001 (ip), vehicle: carboxymethylcellulose (CMC)
[16] = dose: 400.0 mg/kg/injection, schedule: Q01DX001 (ip), vehicle: saline

CC(O)CN1CCCCCC1 (stereo unspecified)
survivor count (dose: 100.0 mg/kg/injection, schedule: Q04DX003 (ip), vehicle: saline with Tween-80): 1 of 6 | survivor count (dose: 200.0 mg/kg/injection, schedule: Q04DX003 (ip), vehicle: saline with Tween-80): 0 of 6 | survivor count [1]: 0 of 6

Nc1ncnc2c1ncn2C(C=O)OC(C=O)CO (stereo unspecified)
T/C (dose: 8.75 mg/kg/injection, schedule: Q01DX009 (ip), vehicle: water): 144 % of control | T/C (dose: 20.0 mg/kg/injection, schedule: Q01DX Z (ip), vehicle: carboxymethylcellulose (CMC)): 125 % of control | T/C (dose: 30.0 mg/kg/injection, schedule: Q01DX Z (ip), vehicle: carboxymethylcellulose (CMC)): 130 and 137 % of control | T/C (dose: 35.0 mg/kg/injection, schedule: Q01DX009 (ip), vehicle: water): 126 % of control | T/C (dose: 45.0 mg/kg/injection, schedule: Q01DX Z (ip), vehicle: carboxymethylcellulose (CMC)): 149 % of control | survivor count (dose: 67.5 mg/kg/injection, schedule: Q01DX Z (ip), vehicle: carboxymethylcellulose (CMC)): 5 of 6 | survivor count (dose: 101.0 mg/kg/injection, schedule: Q01DX Z (ip), vehicle: carboxymethylcellulose (CMC)): 6 of 6 | survivor count (dose: 152.0 mg/kg/injection, schedule: Q01DX Z (ip), vehicle: carboxymethylcellulose (CMC)): 3 of 6 | survivor count (dose: 216.0 mg/kg/injection, schedule: Q01DX Z (ip), vehicle: carboxymethylcellulose (CMC)): 0 of 6 | survivor count (dose: 267.0 mg/kg/injection, schedule: Q01DX009 (oral), vehicle: saline): 1 of 6 | survivor count (dose: 308.0 mg/kg/injection, schedule: Q01DX Z (ip), vehicle: carboxymethylcellulose (CMC)): 0 of 6 | survivor count (dose: 400.0 mg/kg/injection, schedule: Q01DX009 (oral), vehicle: saline): 0 of 6 | survivor count (dose: 600.0 mg/kg/injection, schedule: Q01DX009 (oral), vehicle: saline): 0 of 6

NC(CSS(=O)(=O)O)=NC1CC2CCC1C2 (stereo unspecified)
T/C (dose: 25.0 mg/kg/injection, schedule: Q04DX002 (ip), vehicle: saline): 87, 96, 100, 115 % of control | survivor count (dose: 50.0 mg/kg/injection, schedule: Q01DX001 (ip), vehicle: saline with Tween-80): 3 of 6 | survivor count [2]: 1 of 3 | survivor count (dose: 50.0 mg/kg/injection, schedule: Q04DX002 (ip), vehicle: saline): 1 of 6 | survivor count (dose: 100.0 mg/kg/injection, schedule: Q01DX001 (ip), vehicle: saline with Tween-80): 1 of 6 | survivor count [3]: 1 of 3 | survivor count (dose: 100.0 mg/kg/injection, schedule: Q04DX002 (ip), vehicle: saline with Tween-80): 0 of 3 and 0 of 6 | survivor count (dose: 100.0 mg/kg/injection, schedule: Q04DX002 (ip), vehicle: saline): 0 of 3 and 0 of 6 | survivor count [4]: 1 of 3 | survivor count (dose: 200.0 mg/kg/injection, schedule: Q04DX002 (ip), vehicle: saline with Tween-80): 0 of 3 and 0 of 6 | survivor count [5]: 0 of 3 | survivor count [6]: 0 of 3 and 0 of 6

CCOc1ccc(NC(=O)Nc2cccc(Cl)c2)cc1
survivor count [7]: 3 of 6

C\C(=C/C(=N/N=C/c1ccco1)c1ccccc1)c1ccccc1
survivor count (dose: 300.0 mg/kg/injection, schedule: Q01DX001 (ip), vehicle: saline): 1 of 6

Cc1ccc(NC(=O)Nc2cc(C)on2)c([N+](=O)[O-])c1
survivor count [8]: 6 of 6 | survivor count [9]: 6 of 6

CC1(C)C(=O)N(Cl)C(=O)N1Cl
survivor count (dose: 12.5 mg/kg/injection, schedule: Q01DX009 (ip), vehicle: Klucel (hydroxypropylcellulose) (HPC)): 3 of 3 and 6 of 6 | survivor count (dose: 50.0 mg/kg/injection, schedule: Q01DX001 (ip), vehicle: Klucel (hydroxypropylcellulose) (HPC)): 3 of 6 | survivor count [10]: 0 of 3 | survivor count [2]: 3 of 3 | survivor count [11]: 0 of 6 | survivor count [3]: 0 of 3 | survivor count [12]: 0 of 6 | survivor count [4]: 0 of 3 | survivor count [5]: 0 of 3

O=C1CN(Br)C(=O)N1Br
survivor count (dose: 400.0 mg/kg/injection, schedule: Q01DX009 (ip), vehicle: saline): 2 of 6

[I][Hg][I].c1ccc(N=P(c2ccccc2)(c2ccccc2)c2ccccc2)cc1
survivor count (dose: 75.0 mg/kg/injection, schedule: Q01DX001 (ip), vehicle: other): 1 of 6 | survivor count (dose: 150.0 mg/kg/injection, schedule: Q01DX001 (ip), vehicle: other): 0 of 6 | survivor count (dose: 300.0 mg/kg/injection, schedule: Q01DX001 (ip), vehicle: other): 0 of 6

Cc1cc(NC(=O)Nc2cccc(C3=NCCN3)c2)ccc1NC(=O)Nc1cccc(C2=NCCN2)c1
T/C (dose: 120.0 mg/kg/injection, schedule: Q01DX Z (ip), vehicle: saline): 138 % of control

O=C1O/C(=C/Br)C=C1Br
survivor count [13]: 1 of 3 | survivor count (dose: 100.0 mg/kg/injection, schedule: Q04DX003 (ip), vehicle: saline): 0 of 3 | survivor count (dose: 200.0 mg/kg/injection, schedule: Q04DX003 (ip), vehicle: saline): 0 of 3 | survivor count [14]: 0 of 3

O=c1oc2ccccc2c(O)c1Cc1c(O)c2ccccc2oc1=O
survivor count (dose: 100.0 mg/kg/injection, schedule: Q01DX009 (ip), vehicle: Klucel (hydroxypropylcellulose) (HPC)): 3 of 3 | survivor count [7]: 0 of 3

CNC(=O)Nc1cccc(OC(=O)NC(C)(C)C)c1
survivor count (dose: 400.0 mg/kg/injection, schedule: Q01DX009 (ip), vehicle: saline with Tween-80): 6 of 6

CCCCN(CCCC)CCP(=O)(OCC)OCC
survivor count [6]: 0 of 3

O=C1OCC/C1=C/OC(=O)c1ccccc1
survivor count [5]: 3 of 3

O=C(O)CSC(C(=O)O)c1ccccc1 (stereo unspecified)
survivor count [1]: 2 of 6

CC(C)(NCc1ccccc1)C(=O)c1ccccc1
survivor count [7]: 6 of 6 | survivor count [15]: 1 of 4 | survivor count (dose: 400.0 mg/kg/injection, schedule: Q01DX009 (ip), vehicle: Klucel (hydroxypropylcellulose) (HPC)): 3 of 6

NNC(=O)c1ccc(Cl)cc1Cl
survivor count [10]: 0 of 6 | survivor count (dose: 100.0 mg/kg/injection, schedule: Q04DX003 (ip), vehicle: Klucel (hydroxypropylcellulose) (HPC)): 1 of 6 | survivor count [8]: 0 of 6 | survivor count [9]: 0 of 6

CC(C)(C)C1CCCC(=O)C1 (stereo unspecified)
survivor count (dose: 200.0 mg/kg/injection, schedule: Q01DX001 (ip), vehicle: saline): 1 of 4 | survivor count [16]: 0 of 4

N[n+]1cccc2ccccc21
survivor count [16]: 3 of 6 | survivor count [14]: 0 of 6

Nc1ncnc2c1nc(N)n2C1OC(CO)C(O)C1O (stereo unspecified)
survivor count [16]: 0 of 6

CCN(CC)CCNC(Cc1ccccc1)c1cccc(OC)c1 (stereo unspecified)
survivor count (dose: 200.0 mg/kg/injection, schedule: Q01DX001 (ip), vehicle: carboxymethylcellulose (CMC)): 2 of 4 | survivor count [15]: 0 of 4

CCC1CC(C#N)C(=O)NC1=O (stereo unspecified)
survivor count [13]: 5 of 6 | survivor count [11]: 0 of 7 | survivor count [12]: 0 of 7 | survivor count (dose: 400.0 mg/kg/injection, schedule: Q01DX001 (ip), vehicle: Klucel (hydroxypropylcellulose) (HPC)): 0 of 7

CN(CC(=O)O)CC1C(c2ccccc2)C1c1ccccc1 (stereo unspecified)
survivor count [5]: 1 of 3

CC1=NCCCN=C(C)C(C)=NCCCN=C1C.[Br][Co][Br]
survivor count [9]: 0 of 6
